This is an account of results in paper PMC11009412, “Pathogenic mutations of human phosphorylation sites affect protein–protein interactions” (Nature Communications, 2024).

No constants are given. Whether binding was seen depends on the method and setting. Binding seen in cells or lysates may run through a third protein. A yes stands for co-enrichment or nearness to the bait. Other partners may have been found. For some assays here: No binding means not detected with the bait. For some assays here: Where a sequence is shown, tags or fusion partners need not be part of it.

Experiment [1] addresses T1, GATAD1 S102P peptide on cellulose membrane (PRISMA) (human) (UniProt Q8WUU5).
T1 sequence (peptide): LRNTKYKPAPAAEKK
The experiment can be described thus: affinity purification with mass spectrometry; PRISMA alanine scanning: 15 GATAD1-derived peptides on a cellulose membrane in triplicates, pull-down from HEK-293T lysate, label-free quantification, one-way ANOVA; only the target purified.

For experiment [2], the target named is T2, GATAD1 aspartic acid mutant (S102D) peptide on cellulose membrane (alanine scanning) (human) (UniProt Q8WUU5).
T2 sequence (peptide): LRNTKYKDAPAAEKK
The experiment is described as above.

Experiment [3] addresses T3, BirA*-FLAG-GATAD1 S102A (human) (UniProt Q8WUU5).
T3 sequence: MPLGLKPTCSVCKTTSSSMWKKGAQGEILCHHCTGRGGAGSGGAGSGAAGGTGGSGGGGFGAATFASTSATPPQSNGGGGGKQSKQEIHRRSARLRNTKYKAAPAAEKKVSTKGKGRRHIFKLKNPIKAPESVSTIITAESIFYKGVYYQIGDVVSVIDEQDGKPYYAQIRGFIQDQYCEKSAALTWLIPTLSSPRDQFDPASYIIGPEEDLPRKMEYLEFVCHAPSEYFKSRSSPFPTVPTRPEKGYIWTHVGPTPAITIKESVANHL
The experiment can be described thus: affinity purification with mass spectrometry; FLAG immunoprecipitation (ANTI-FLAG M2 magnetic beads, 2 h) of BirA*-FLAG-GATAD1 variants from tetracycline-induced Flp-In-293 T-REx lysate (50 mM Tris HCl pH 7.4, 150 mM NaCl, 1 mM EDTA, 1% Triton X-100); control non-induced cells; label-free, triplicates.

The target of experiment [4] is T4, BirA*-FLAG-GATAD1 S102D (human) (UniProt Q8WUU5).
T4 sequence: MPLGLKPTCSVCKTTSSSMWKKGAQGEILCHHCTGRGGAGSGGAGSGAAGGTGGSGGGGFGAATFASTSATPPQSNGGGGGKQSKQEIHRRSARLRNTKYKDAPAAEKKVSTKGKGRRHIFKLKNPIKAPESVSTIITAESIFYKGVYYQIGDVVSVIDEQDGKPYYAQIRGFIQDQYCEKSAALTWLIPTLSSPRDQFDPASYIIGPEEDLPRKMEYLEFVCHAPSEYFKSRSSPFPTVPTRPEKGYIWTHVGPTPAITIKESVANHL
Described as above.

Experiment [5] addresses T5, BirA*-FLAG-GATAD1 S102P (human) (UniProt Q8WUU5).
T5 sequence: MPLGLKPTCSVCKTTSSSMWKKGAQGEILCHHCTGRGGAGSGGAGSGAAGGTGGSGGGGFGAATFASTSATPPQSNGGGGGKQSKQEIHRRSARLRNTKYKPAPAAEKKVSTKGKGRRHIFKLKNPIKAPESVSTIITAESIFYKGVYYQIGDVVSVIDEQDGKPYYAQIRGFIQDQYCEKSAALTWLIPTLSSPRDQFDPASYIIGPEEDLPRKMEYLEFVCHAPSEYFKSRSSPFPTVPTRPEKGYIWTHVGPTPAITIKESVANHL
Described as above.

Experiment [6] has as its target T6, BirA*-FLAG-GATAD1 wild-type (WT) (human) (UniProt Q8WUU5).
T6 sequence: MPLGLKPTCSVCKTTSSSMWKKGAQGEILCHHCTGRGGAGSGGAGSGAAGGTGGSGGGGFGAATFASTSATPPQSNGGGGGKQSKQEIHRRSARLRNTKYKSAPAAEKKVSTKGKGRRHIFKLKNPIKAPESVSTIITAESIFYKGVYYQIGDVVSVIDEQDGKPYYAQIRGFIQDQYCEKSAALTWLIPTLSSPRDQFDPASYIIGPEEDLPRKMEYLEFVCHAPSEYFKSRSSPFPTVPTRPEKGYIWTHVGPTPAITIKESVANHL
Described as above.

The target of experiment [7] is T7, GATAD1 pS102 peptide, position +3 alanine to glycine (alanine scanning) (human) (UniProt Q8WUU5).
T7 sequence (peptide, phosphoserine at 102): LRNTKYKSAPGAEKK
The experiment can be described thus: affinity purification with mass spectrometry; PRISMA alanine scanning: 15 GATAD1-derived peptides on a cellulose membrane in triplicates, pull-down from HEK-293T lysate, label-free quantification, one-way ANOVA; only the target purified.

The target of experiment [8] is T8, GATAD1 pS102 peptide, position +4 alanine to glycine (alanine scanning) (human) (UniProt Q8WUU5).
T8 sequence (peptide, phosphoserine at 102): LRNTKYKSAPAGEKK
The description is as above.

Experiment [9] has as its target T9, GATAD1 pS102 peptide, position +5 to alanine (alanine scanning) (human) (UniProt Q8WUU5).
T9 sequence (peptide, phosphoserine at 102): LRNTKYKSAPAAAKK
The experiment is described as above.

For experiment [10], the target named is T10, GATAD1 pS102 peptide, position -1 to alanine (alanine scanning) (human) (UniProt Q8WUU5).
T10 sequence (peptide, phosphoserine at 102): LRNTKYASAPAAEKK
The experiment is described as above.

Experiment [11] has as its target T11, GATAD1 pS102 peptide, position -2 to alanine (alanine scanning) (human) (UniProt Q8WUU5).
T11 sequence (peptide, phosphoserine at 102): LRNTKAKSAPAAEKK
The description is as above.

Experiment [12] concerns the target T12, GATAD1 pS102 peptide, position -3 to alanine (alanine scanning) (human) (UniProt Q8WUU5).
T12 sequence (peptide, phosphoserine at 102): LRNTAYKSAPAAEKK
Described as above.

Experiment [13] deals with T13, GATAD1 pS102 peptide, position -4 to alanine (alanine scanning) (human) (UniProt Q8WUU5).
T13 sequence (peptide, phosphoserine at 102): LRNAKYKSAPAAEKK
The description is as above.

For experiment [14], the target named is T14, GATAD1 pS102 peptide, position -5 to alanine (alanine scanning) (human) (UniProt Q8WUU5).
T14 sequence (peptide, phosphoserine at 102): LRATKYKSAPAAEKK
The experiment is described as above.

Experiment [15] concerns the target T15, GATAD1 pS102 peptide, proline in position +2 to alanine (alanine scanning) (human) (UniProt Q8WUU5).
T15 sequence (peptide, phosphoserine at 102): LRNTKYKSAAAAEKK
The experiment is described as above.

B1: TNPO3 (protein, UniProt Q9Y5L0 1-923)
chain: MEGAKPTLQLVYQAVQALYHDPDPSGKERASFWLGELQRSVHAWEISDQLLQIRQDVESCYFAAQTMKMKIQTSFYELPTDSHASLRDSLLTHIQNLKDLSPVIVTQLALAIADLALQMPSWKGCVQTLVEKYSNDVTSLPFLLEILTVLPEEVHSRSLRIGANRRTEIIEDLAFYSSTVVSLLMTCVEKAGTDEKMLMKVFRCLGSWFNLGVLDSNFMANNKLLALLFEVLQQDKTSSNLHEAASDCVCSALYAIENVETNLPLAMQLFQGVLTLETAYHMAVAREDLDKVLNYCRIFTELCETFLEKIVCTPGQGLGDLRTLELLLICAGHPQYEVVEISFNFWYRLGEHLYKTNDEVIHGIFKAYIQRLLHALARHCQLEPDHEGVPEETDDFGEFRMRVSDLVKDLIFLIGSMECFAQLYSTLKEGNPPWEVTEAVLFIMAAIAKSVDPENNPTLVEVLEGVVRLPETVHTAVRYTSIELVGEMSEVVDRNPQFLDPVLGYLMKGLCEKPLASAAAKAIHNICSVCRDHMAQHFNGLLEIARSLDSFLLSPEAAVGLLKGTALVLARLPLDKITECLSELCSVQVMALKKLLSQEPSNGISSDPTVFLDRLAVIFRHTNPIVENGQTHPCQKVIQEIWPVLSETLNKHRADNRIVERCCRCLRFAVRCVGKGSAALLQPLVTQMVNVYHVHQHSCFLYLGSILVDEYGMEEGCRQGLLDMLQALCIPTFQLLEQQNGLQNHPDTVDDLFRLATRFIQRSPVTLLRSQVVIPILQWAIASTTLDHRDANCSVMRFLRDLIHTGVANDHEEDFELRKELIGQVMNQLGQQLVSQLLHTCCFCLPPYTLPDVAEVLWEIMQVDRPTFCRWLENSLKGLPKETTVGAVTVTHKQLTDFHKQVTSAEECKQVCWALRDFTRLFR
Take B1: the binding result in [1] and in [2] was “binds” each time.

B2: SIN3B (protein, UniProt O75182 1-1162)
chain: MAHAGGGSGGSGAGGPAGRGLSGARWGRSGSAGHEKLPVHVEDALTYLDQVKIRFGSDPATYNGFLEIMKEFKSQSIDTPGVIRRVSQLFHEHPDLIVGFNAFLPLGYRIDIPKNGKLNIQSPLTSQENSHNHGDGAEDFKQQVPYKEDKPQVPLESDSVEFNNAISYVNKIKTRFLDHPEIYRSFLEILHTYQKEQLNTRGRPFRGMSEEEVFTEVANLFRGQEDLLSEFGQFLPEAKRSLFTGNGPCEMHSVQKNEHDKTPEHSRKRSRPSLLRPVSAPAKKKMKLRGTKDLSIAAVGKYGTLQEFSFFDKVRRVLKSQEVYENFLRCIALFNQELVSGSELLQLVSPFLGKFPELFAQFKSFLGVKELSFAPPMSDRSGDGISREIDYASCKRIGSSYRALPKTYQQPKCSGRTAICKELDHWTLLQGSWTDDYCMSKFKNTCWIPGYSAGVLNDTWVSFPSWSEDSTFVSSKKTPYEEQLHRCEDERFELDVVLETNLATIRVLESVQKKLSRMAPEDQEKFRLDDSLGGTSEVIQRRAIYRIYGDKAPEIIESLKKNPVTAVPVVLKRLKAKEEEWREAQQGFNKIWREQYEKAYLKSLDHQAVNFKQNDTKALRSKSLLNEIESVYDEHQEQHSEGRSAPSSEPHLIFVYEDRQILEDAAALISYYVKRQPAIQKEDQGTIHQLLHQFVPSLFFSQQLDLGASEESADEDRDSPQGQTTDPSERKKPAPGPHSSPPEEKGAFGDAPATEQPPLPPPAPHKPLDDVYSLFFANNNWYFFLRLHQTLCSRLLKIYRQAQKQLLEYRTEKEREKLLCEGRREKGSDPAMELRLKQPSEVELEEYYPAFLDMVRSLLEGSIDPTQYEDTLREMFTIHAYVGFTMDKLVQNIARQLHHLVSDDVCLKVVELYLNEKKRGAAGGNLSSRCVRAARETSYQWKAERCMADENCFKVMFLQRKGQVIMTIELLDTEEAQTEDPVEVQHLARYVEQYVGTEGASSSPTEGFLLKPVFLQRNLKKFRRRWQSEQARALRGEARSSWKRLVGVESACDVDCRFKLSTHKMVFIVNSEDYMYRRGTLCRAKQVQPLVLLRHHQHFEEWHSRWLEDNVTVEAASLVQDWLMGEEDEDMVPCKTLCETVHVHGLPVTRYRVQYSRRPASP
With B2, the binding result in [3], in [4], in experiment [5] and in [6] was “binds” throughout.

B3: 14-3-3 gamma (protein, UniProt P61981 1-247)
chain: MVDREQLVQKARLAEQAERYDDMAAAMKNVTELNEPLSNEERNLLSVAYKNVVGARRSSWRVISSIEQKTSADGNEKKIEMVRAYREKIEKELEAVCQDVLSLLDNYLIKNCSETQYESKVFYLKMKGDYYRYLAEVATGEKRATVVESSEKAYSEAHEISKEHMQPTHPIRLGLALNYSVFYYEIQNAPEQACHLAKTAFDDAIAELDTLNEDSYKDSTLIMQLLRDNLTLWTSDQQDDDGGEGNN
On to B3, for which the binding entry in [1] is given as “no binding”; in experiment [2], “no binding”; in experiment [7], “binds”; in experiment [8] it was “binds”; in experiment [9], “binds”; in experiment [10], “binds”. The binding result in [11], in [12], in [13], in [14] and in experiment [15] was “binds” each time.
